Laboratory results: PubChem BioAssay AID493246 (Drosophila RNAi Screening Center, 2011)
Aim: 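Genome-wide search for dsRNAs that reduce cell number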 (primary screen). System: Drosophila Kc and S2R+ cells. Knock-down reagent: long dsRNA against Drosophila genes. Detection: 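Raw, unnormalised count of remaining cells in each well; per-plate z-scores of cell number underlie the calls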. Direction: Kc cell number and S2R+ cell number: higher = more cells remaining. Call rule: 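Active when the per-plate z-score of cell number is 3 or more in the direction of fewer cells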.
The screen tested about 21,000 reagents; this is an unselected part of those that have a named target and a result. In the full data, 429 (2%) got an active call. 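Values are raw and not normalised between plates; calls rest on per-plate z-scores that were not deposited.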 Reagents against one gene are numbered here. Not stated in the record: the amount of reagent, the time to read-out.

With knock-down of CG14689, the screen gave Kc cell number, rep 1 = 1.46e6; Kc cell number, rep 2 = 1.48e6; S2R+ cell number, rep 1 = 1.29e6; S2R+ cell number, rep 2 = 1.33e6; inactive.
For Dnz1, the values are Kc cell number, rep 1 = 1.31e6; Kc cell number, rep 2 = 1.40e6; S2R+ cell number, rep 1 = 1.12e6; S2R+ cell number, rep 2 = 1.14e6; inactive.
With knock-down of CG13724 the results were Kc cell number, rep 1 = 1.76e6; Kc cell number, rep 2 = 1.86e6; S2R+ cell number, rep 1 = 1.35e6; S2R+ cell number, rep 2 = 1.42e6; inactive.
Knock-down of Smn came out at: Kc cell number, rep 1 = 1.59e6; Kc cell number, rep 2 = 1.65e6; S2R+ cell number, rep 1 = 1.17e6; S2R+ cell number, rep 2 = 1.18e6; inactive.
boca scored Kc cell number, rep 1 = 1.53e6; Kc cell number, rep 2 = 1.62e6; S2R+ cell number, rep 1 = 1.25e6; S2R+ cell number, rep 2 = 1.39e6; inactive.
Against Cyp4aa1 the deposit lists Kc cell number, rep 1 = 1.71e6; Kc cell number, rep 2 = 1.66e6; S2R+ cell number, rep 1 = 1.27e6; S2R+ cell number, rep 2 = 1.42e6; inactive.
Against CG13024, the entry reads Kc cell number, rep 1 = 1.38e6; Kc cell number, rep 2 = 1.45e6; S2R+ cell number, rep 1 = 1.29e6; S2R+ cell number, rep 2 = 1.39e6; inactive.
Silencing of jp #1 came out at: Kc cell number, rep 1 = 1.35e6; Kc cell number, rep 2 = 1.43e6; S2R+ cell number, rep 1 = 1.06e6; S2R+ cell number, rep 2 = 1.19e6; inactive.
After knock-down of jp #2, the record shows Kc cell number, rep 1 = 1.71e6; Kc cell number, rep 2 = 1.71e6; S2R+ cell number, rep 1 = 1.04e6; S2R+ cell number, rep 2 = 1.15e6; inactive.
Hsp70Bc showed Kc cell number, rep 1 = 1.53e6; Kc cell number, rep 2 = 1.57e6; S2R+ cell number, rep 1 = 1.14e6; S2R+ cell number, rep 2 = 1.21e6; inactive.
Silencing of eIF5 came out at: Kc cell number, rep 1 = 5.43e5; S2R+ cell number, rep 1 = 8.02e5; inactive.
After knock-down of baz the results were Kc cell number, rep 1 = 1.46e6; Kc cell number, rep 2 = 1.42e6; S2R+ cell number, rep 1 = 1.14e6; S2R+ cell number, rep 2 = 1.26e6; inactive.
